{"source": "PubChem BioAssay AID328", "about": "(DTP/NCI, 2004)", "tested_on": "BDF1 mice, P388 leukemia ip, median survival T/C", "assay": "NCI In Vivo Anticancer Drug Screen. Data for tumor model P388 Leukemia (intraperitoneal) in B6D2F1 (BDF1) mice", "details": "T/C endpoint: median survival time, higher T/C = longer survival", "how_it_was_run": "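In tumour-bearing mice, survival after compound treatment is set against the vehicle group and given as a quotient.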", "key": {"[1]": {"details": "dose: 200.0 mg/kg/injection, schedule: Q01DX009 (ip), vehicle: saline with Tween-80"}, "[2]": {"details": "dose: 400.0 mg/kg/injection, schedule: Q01DX009 (ip), vehicle: saline with Tween-80"}, "[3]": {"details": "dose: 100.0 mg/kg/injection, schedule: Q01DX009 (ip), vehicle: water"}, "[4]": {"details": "dose: 100.0 mg/kg/injection, schedule: Q01DX009 (ip), vehicle: Klucel (hydroxypropylcellulose) (HPC)"}, "[5]": {"details": "dose: 100.0 mg/kg/injection, schedule: Q01DX009 (ip), vehicle: saline with Tween-80"}}, "note": "The list is a part of this screen's results and no random one: it is rich in T/C values a quarter to a half above the control, in often repeated tests (any T/C) and in doses without a T/C. Other doses and runs of a compound stand elsewhere. T/C gives the treated animals as a percentage of the vehicle group. Some doses have a count of surviving animals in place of a T/C: the source holds a T/C of zero for them, seemingly a mark for toxic or unscored doses. Some survivor counts are full or nearly so, which does not show that the dose was tolerated: survival well below the control is almost never listed, so the zero probably covers shortened survival too. Survivors were counted at the toxicity check, usually on the fifth day, unless a day is given; later deaths do not show. Schedules are NCI's codes, read here as Q, the interval in days (D) or hours (H), X, the number of doses. Where survival is the endpoint, this PubChem deposit counts one and a half times the control or more as active, and values a quarter to a half above the control carry no call in these data; other NCI protocols may use other cut-offs. Some entries hold several experiments; the values are given in rising order. Some T/C values carry the count of animals alive at the toxicity check (mostly the fifth day); where none is given, no animal had died by that day."}
{"smiles": "O=C(/C=C/c1ccc(OCc2ccccc2)cc1)c1ccccc1Cl", "values": [{"measurement": "T/C", "setting": "[1]", "value": "131 % of control"}]}
{"smiles": "CS(=O)(=O)OCCCOS(C)(=O)=O", "values": [{"measurement": "survivor count", "setting": "dose: 200.0 mg/kg/injection, schedule: Q01DX009 (ip), vehicle: Klucel (hydroxypropylcellulose) (HPC)", "value": "6 of 6"}, {"measurement": "survivor count", "setting": "dose: 400.0 mg/kg/injection, schedule: Q04DX003 (ip), vehicle: saline", "value": "4 of 6"}]}
{"smiles": "COC(=O)C(CSCSC)NC(=O)/C=C/c1cc(OC)ccc1OC", "note": "(centres undefined)", "values": [{"measurement": "survivor count", "setting": "[2]", "value": "5 of 6"}]}
{"smiles": "NC(=O)CNCCS(=O)(=O)O", "values": [{"measurement": "survivor count", "setting": "dose: 400.0 mg/kg/injection, schedule: Q01DX009 (ip), vehicle: saline", "value": "6 of 6"}]}
{"smiles": "Cc1c2ccccc2cc2cc[n+]3ccccc3c12", "values": [{"measurement": "T/C", "setting": "dose: 7.5 mg/kg/injection, schedule: Q01DX010 (ip), vehicle: carboxymethylcellulose (CMC)", "value": "130 % of control [5 of 6 alive]"}, {"measurement": "T/C", "setting": "dose: 15.0 mg/kg/injection, schedule: Q01DX010 (ip), vehicle: carboxymethylcellulose (CMC)", "value": "135 % of control"}, {"measurement": "survivor count", "setting": "dose: 30.0 mg/kg/injection, schedule: Q01DX010 (ip), vehicle: carboxymethylcellulose (CMC)", "value": "0 of 6"}, {"measurement": "survivor count", "setting": "dose: 60.0 mg/kg/injection, schedule: Q01DX010 (ip), vehicle: carboxymethylcellulose (CMC)", "value": "0 of 6"}]}
{"smiles": "NCCCn1c2ccccc2c2cnccc21", "values": [{"measurement": "survivor count", "setting": "dose: 50.0 mg/kg/injection, schedule: Q01DX009 (ip), vehicle: water", "value": "3 of 6"}, {"measurement": "survivor count", "setting": "[3]", "value": "0 of 6"}, {"measurement": "survivor count", "setting": "dose: 200.0 mg/kg/injection, schedule: Q04DX003 (ip), vehicle: water", "value": "0 of 6"}]}
{"smiles": "CC(=O)Nc1ccc(NC(=O)c2ccc([As](O)O)cc2)cc1", "values": [{"measurement": "T/C", "setting": "[4]", "value": "145 % of control"}, {"measurement": "survivor count", "setting": "dose: 400.0 mg/kg/injection, schedule: Q01DX009 (ip), vehicle: Klucel (hydroxypropylcellulose) (HPC)", "value": "2 of 6"}]}
{"smiles": "COC1=C(Br)[C@H](O)[C@](O)(CC#N)C=C1Br", "values": [{"measurement": "T/C", "setting": "dose: 25.0 mg/kg/injection, schedule: Q01DX009 (ip), vehicle: Klucel (hydroxypropylcellulose) (HPC)", "value": "126 % of control"}, {"measurement": "T/C", "setting": "dose: 50.0 mg/kg/injection, schedule: Q01DX009 (ip), vehicle: Klucel (hydroxypropylcellulose) (HPC)", "value": "134 % of control"}, {"measurement": "survivor count", "setting": "[4]", "value": "5 of 6"}]}
{"smiles": "CC[n+]1ccc(Nc2ccc(NC(=O)c3ccc(Nc4cc[n+](CC)c5ccc(N)cc45)cc3)cc2)cc1", "values": [{"measurement": "T/C", "setting": "dose: 0.05 mg/kg/injection, schedule: Q01DX010 (ip), vehicle: saline", "value": "130 % of control"}, {"measurement": "T/C", "setting": "dose: 0.2 mg/kg/injection, schedule: Q01DX010 (ip), vehicle: saline", "value": "145 % of control"}]}
{"smiles": "C[C@@H]1CN(C(=O)CCOS(C)(=O)=O)[C@@H](C)CN1C(=O)CCOS(C)(=O)=O", "values": [{"measurement": "T/C", "setting": "dose: 25.0 mg/kg/injection, schedule: Q04DX003 (ip), vehicle: saline with Tween-80", "value": "145 % of control"}, {"measurement": "T/C", "setting": "dose: 100.0 mg/kg/injection, schedule: Q04DX003 (ip), vehicle: saline with Tween-80", "value": "140 % of control"}, {"measurement": "survivor count", "setting": "[2]", "value": "6 of 6"}, {"measurement": "survivor count", "setting": "dose: 600.0 mg/kg/injection, schedule: Q04DX003 (ip), vehicle: saline with Tween-80", "value": "5 of 5"}]}
{"smiles": "O=C(NC(=O)c1c(F)cccc1F)Nc1nc2ccccc2s1", "values": [{"measurement": "survivor count", "setting": "dose: 50.0 mg/kg/injection, schedule: Q01DX009 (ip), vehicle: saline with Tween-80", "value": "6 of 6"}]}
{"smiles": "COC(=O)c1ccc(COc2ccc([N+](=O)[O-])cc2Cl)cc1", "values": [{"measurement": "T/C", "setting": "[5]", "value": "130 % of control"}]}
{"smiles": "O=c1oc2ccccc2c2c1C(c1ccc3c(c1)OCO3)C=C(c1ccc3c(c1)OCO3)O2", "note": "(centres undefined)", "values": [{"measurement": "survivor count", "setting": "[3]", "value": "4 of 6"}, {"measurement": "T/C", "setting": "dose: 400.0 mg/kg/injection, schedule: Q01DX009 (ip), vehicle: water", "value": "132 % of control [5 of 6 alive]"}, {"measurement": "T/C", "setting": "dose: 600.0 mg/kg/injection, schedule: Q04DX003 (ip), vehicle: water", "value": "127 % of control"}]}
{"smiles": "O=[N+]([O-])c1ccc(/C=N\\Nc2ccc([N+](=O)[O-])cn2)cc1", "values": [{"measurement": "survivor count", "setting": "[2]", "value": "4 of 6"}]}
{"smiles": "C[As](C)SCC1OC2OC(C)(C)OC2C2OC(C)(C)OC12", "note": "(centres undefined)", "values": [{"measurement": "T/C", "setting": "[5]", "value": "126 and 127 % of control"}, {"measurement": "T/C", "setting": "[1]", "value": "136 [5 of 6 alive] and 141 % of control [5 of 6 alive]"}, {"measurement": "survivor count", "setting": "[2]", "value": "3 of 6"}]}
{"smiles": "CC1(C)CC2(C)OC2C2(C1)N=NC(=Nc1ccccc1)O2", "note": "(centres undefined)", "values": [{"measurement": "T/C", "setting": "[5]", "value": "126 % of control"}, {"measurement": "T/C", "setting": "[1]", "value": "142 % of control [5 of 6 alive]"}]}
